Results as given in paper PMC6372160, “Biophysical and structural characterization of a zinc-responsive repressor of the MarR superfamily” (PLoS ONE, 2019).
These are yes or no findings as the source states them, for the method shown. Some entries that bind do so weakly or less than the wild type. Sequences can lack the tags named with a protein.

Legend:
[1] = target: ZitR protein of Lactococcus lactis subspecies cremoris strain MG1363, untagged recombinant (S2A, A4R, D8E) form (Lactococcus lactis subsp. cremoris strain MG1363) (UniProt A2RNS2); assay: SEC-MALS; 50 ul of fully purified protein at approximately 1-4 mg/ml on a KW-803 column (Shodex), 0.5 ml/min, supplemented with 1 mM EDTA; both purified
[2] = target: ZitR protein of Lactococcus lactis subspecies cremoris strain MG1363, untagged recombinant (S2A, A4R, D8E) form (Lactococcus lactis subsp. cremoris strain MG1363) (UniProt A2RNS2); assay: crystal structure; holo-ZitRMG, dimeric form, space group P41, 8 molecules (four dimers) and 16 Zn(II) in the asymmetric unit, 2.8 Å; both purified

B1: ZitR protein of Lactococcus lactis subspecies cremoris strain MG1363, untagged recombinant (S2A, A4R, D8E) form (natural protein, UniProt A2RNS2 1-145, looked up)
chain: MALRNQIEQFLGAIMQFAENKHEILLGECESNVKLTSTQEHILMILAAEVSTNARIAEQLKISPAAVTKALKKLQEQELIKSSRATNDERVVLWSLTEKAIPVAKEHAAHHEKTLSTYQELGDKFTDEEQKVISQFLSVLTEEFR
notes: A minor tetrameric form was also seen at the end of the purification; also called ZitRMG; holo-ZitRMG
With B1 the binding [1] was “binds” and the binding [2] was “binds”.
